Laboratory results: patent publication EP1977765A1 (Diatos, priority 2007, dated 2008)

Key:
[1] = general procedure: Fmoc solid-phase peptide synthesis; Wang resin; details: whole synthesis, 214 nm, scale of the general procedure 3.65 mmol
[2] = general procedure: Fmoc solid-phase peptide synthesis; Wang resin-Leu-Fmoc; details: late stage modification step, 214 nm

Substance | crude HPLC purity [1] | final HPLC purity [2]
Fmoc-Ala-Leu-Ala-Leu-OH (Fmoc-ALAL-OH) | 90% | 
PEPTIDE1{[Suc].[bAla].[LeuX].[AlaX].[LeuX].[Ptx2O]}$$$$V2.0 |  | 93%

For some assays here: Strings that start with PEPTIDE1 are HELM notation: dots part the residues, brackets hold end groups and non-standard residues.
